In paper PMC9354789:

Tests used:
[1] = target: Fom-2 decoy (bait) protein (melon (Cucumis melo L.)) (UniProt Q6E436); assay: two-hybrid; Matchmaker Gold system; Y2HGold (pGBKT7-Fom-2) mated with the Y187 melon-F. oxysporum cDNA library, blue colonies on DDO/X/A then QDO/X/A; positive library plasmids retested by co-transformation with the bait or with empty pGBKT7 into Y2HGold on DDO/X and QDO/X/A
[2] = target: Fom-2 decoy (bait) protein (melon (Cucumis melo L.)) (UniProt Q6E436); assay: two-hybrid; reverse hybridization: one-to-one mating of Y187 carrying the AD plasmid with Y2HGold carrying the BD decoy plasmid; QDO/X

| Substance | binding [1] | binding [2] |
| --- | --- | --- |
| BZIP transcription factor MELO3C011839 (from UniProt A0A1S3BEV4) | binds | binds |
| BZIP transcription factor MELO3C019349 (from UniProt A0A1S3C234) | binds | binds |

These are yes or no findings as the source states them, for the method shown. A result given as binding can be weak or reduced; the word gives no strength.
